Measurements as given in PubChem BioAssay (EPA / NIEHS).
Inconclusive means that the source gave no clear call. Such entries were picked first, then a sample of the others. For part of these data: Potencies of inconclusive entries are doubtful fits and often do not repeat. Active and inactive are the calls of the source. How the source made its calls, unless noted: active means hit-call score of the fitted dose curve at least 0.9, where 1 is the maximum; inconclusive means response in the unintended direction; inactive means score below 0.9.

Chains of the proteins cited; added tags and fusions are not shown. Lines headed by an entry give the natural chain unless they say otherwise; changes in a name come on top.
UniProt P19793: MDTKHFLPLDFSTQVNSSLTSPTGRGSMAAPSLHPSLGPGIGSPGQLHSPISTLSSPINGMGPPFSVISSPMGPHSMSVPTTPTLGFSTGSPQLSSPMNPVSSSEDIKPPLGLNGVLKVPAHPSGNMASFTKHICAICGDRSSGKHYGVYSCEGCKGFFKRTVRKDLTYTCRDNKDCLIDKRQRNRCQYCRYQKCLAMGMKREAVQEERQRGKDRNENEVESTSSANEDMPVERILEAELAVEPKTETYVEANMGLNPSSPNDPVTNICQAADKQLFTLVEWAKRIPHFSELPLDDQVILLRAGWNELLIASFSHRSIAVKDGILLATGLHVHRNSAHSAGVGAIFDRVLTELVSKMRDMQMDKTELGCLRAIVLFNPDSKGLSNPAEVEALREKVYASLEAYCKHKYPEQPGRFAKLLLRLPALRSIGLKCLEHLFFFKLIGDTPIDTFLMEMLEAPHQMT
UniProt P20813: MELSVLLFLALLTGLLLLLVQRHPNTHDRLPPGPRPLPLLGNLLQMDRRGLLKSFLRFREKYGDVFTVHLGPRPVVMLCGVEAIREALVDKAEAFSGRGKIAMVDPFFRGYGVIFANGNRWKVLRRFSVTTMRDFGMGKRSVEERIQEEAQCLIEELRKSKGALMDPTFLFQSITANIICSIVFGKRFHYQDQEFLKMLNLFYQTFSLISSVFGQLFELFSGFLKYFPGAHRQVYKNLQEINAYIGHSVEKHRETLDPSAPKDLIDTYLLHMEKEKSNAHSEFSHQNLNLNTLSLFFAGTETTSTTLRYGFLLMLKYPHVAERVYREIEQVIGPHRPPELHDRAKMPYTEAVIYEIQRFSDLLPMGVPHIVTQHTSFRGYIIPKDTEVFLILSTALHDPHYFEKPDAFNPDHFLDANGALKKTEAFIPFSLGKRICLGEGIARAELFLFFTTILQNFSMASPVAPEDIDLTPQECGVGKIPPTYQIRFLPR
UniProt P08684, whole entry, looked up: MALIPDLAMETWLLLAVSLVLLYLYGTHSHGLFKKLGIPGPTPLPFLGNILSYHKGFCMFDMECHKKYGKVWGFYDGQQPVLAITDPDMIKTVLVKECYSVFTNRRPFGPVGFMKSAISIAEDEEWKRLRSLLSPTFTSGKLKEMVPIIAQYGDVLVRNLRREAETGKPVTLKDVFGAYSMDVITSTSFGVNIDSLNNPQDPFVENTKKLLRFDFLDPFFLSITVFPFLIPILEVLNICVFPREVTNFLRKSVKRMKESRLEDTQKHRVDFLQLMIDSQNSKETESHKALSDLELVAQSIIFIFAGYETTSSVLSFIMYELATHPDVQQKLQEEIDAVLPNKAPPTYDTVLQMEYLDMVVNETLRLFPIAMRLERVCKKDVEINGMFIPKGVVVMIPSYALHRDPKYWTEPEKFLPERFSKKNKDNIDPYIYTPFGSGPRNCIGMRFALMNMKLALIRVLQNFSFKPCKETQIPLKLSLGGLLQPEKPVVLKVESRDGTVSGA
UniProt Q14790: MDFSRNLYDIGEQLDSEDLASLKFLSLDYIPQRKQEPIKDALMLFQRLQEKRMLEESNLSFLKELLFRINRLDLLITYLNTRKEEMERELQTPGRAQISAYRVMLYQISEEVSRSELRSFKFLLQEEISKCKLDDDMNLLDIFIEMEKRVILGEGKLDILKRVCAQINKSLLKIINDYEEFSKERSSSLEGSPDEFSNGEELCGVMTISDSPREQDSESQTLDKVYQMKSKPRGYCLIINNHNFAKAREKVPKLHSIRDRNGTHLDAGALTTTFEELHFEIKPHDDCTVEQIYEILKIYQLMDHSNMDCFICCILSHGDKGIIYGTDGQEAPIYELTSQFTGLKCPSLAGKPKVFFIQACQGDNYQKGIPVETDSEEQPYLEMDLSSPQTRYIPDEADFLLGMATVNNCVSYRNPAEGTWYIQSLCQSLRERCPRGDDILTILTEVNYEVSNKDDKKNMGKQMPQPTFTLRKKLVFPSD
UniProt P31424, whole entry, looked up: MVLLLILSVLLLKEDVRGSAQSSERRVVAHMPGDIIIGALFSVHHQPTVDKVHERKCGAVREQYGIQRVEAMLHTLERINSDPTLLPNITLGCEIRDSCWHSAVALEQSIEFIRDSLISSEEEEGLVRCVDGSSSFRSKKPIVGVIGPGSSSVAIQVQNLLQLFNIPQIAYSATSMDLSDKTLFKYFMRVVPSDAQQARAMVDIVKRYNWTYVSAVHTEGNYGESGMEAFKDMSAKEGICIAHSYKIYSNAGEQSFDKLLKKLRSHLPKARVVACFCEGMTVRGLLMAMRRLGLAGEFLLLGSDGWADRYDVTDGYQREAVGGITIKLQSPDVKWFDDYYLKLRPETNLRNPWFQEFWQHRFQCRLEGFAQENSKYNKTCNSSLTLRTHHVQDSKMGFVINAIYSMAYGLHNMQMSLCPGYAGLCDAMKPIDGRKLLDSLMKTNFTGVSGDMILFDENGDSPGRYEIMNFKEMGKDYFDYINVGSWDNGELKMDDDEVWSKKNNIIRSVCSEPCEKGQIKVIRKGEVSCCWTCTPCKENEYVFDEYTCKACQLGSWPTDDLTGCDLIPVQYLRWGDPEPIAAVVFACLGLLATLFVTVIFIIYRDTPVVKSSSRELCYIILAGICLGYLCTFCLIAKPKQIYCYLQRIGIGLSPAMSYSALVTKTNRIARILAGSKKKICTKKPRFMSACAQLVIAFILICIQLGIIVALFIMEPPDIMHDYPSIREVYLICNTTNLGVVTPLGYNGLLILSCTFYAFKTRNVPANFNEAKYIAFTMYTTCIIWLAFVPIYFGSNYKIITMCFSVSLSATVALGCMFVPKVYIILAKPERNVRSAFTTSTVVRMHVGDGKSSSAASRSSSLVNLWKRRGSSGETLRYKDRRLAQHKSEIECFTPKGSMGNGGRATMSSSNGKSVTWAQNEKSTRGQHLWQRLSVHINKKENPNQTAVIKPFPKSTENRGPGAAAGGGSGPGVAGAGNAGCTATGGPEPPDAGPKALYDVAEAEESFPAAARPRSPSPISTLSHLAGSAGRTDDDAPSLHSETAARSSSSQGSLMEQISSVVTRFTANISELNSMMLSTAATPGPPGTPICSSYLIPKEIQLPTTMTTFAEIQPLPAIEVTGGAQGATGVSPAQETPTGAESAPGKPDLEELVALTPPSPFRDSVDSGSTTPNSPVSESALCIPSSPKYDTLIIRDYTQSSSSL
UniProt P03372, whole entry, looked up: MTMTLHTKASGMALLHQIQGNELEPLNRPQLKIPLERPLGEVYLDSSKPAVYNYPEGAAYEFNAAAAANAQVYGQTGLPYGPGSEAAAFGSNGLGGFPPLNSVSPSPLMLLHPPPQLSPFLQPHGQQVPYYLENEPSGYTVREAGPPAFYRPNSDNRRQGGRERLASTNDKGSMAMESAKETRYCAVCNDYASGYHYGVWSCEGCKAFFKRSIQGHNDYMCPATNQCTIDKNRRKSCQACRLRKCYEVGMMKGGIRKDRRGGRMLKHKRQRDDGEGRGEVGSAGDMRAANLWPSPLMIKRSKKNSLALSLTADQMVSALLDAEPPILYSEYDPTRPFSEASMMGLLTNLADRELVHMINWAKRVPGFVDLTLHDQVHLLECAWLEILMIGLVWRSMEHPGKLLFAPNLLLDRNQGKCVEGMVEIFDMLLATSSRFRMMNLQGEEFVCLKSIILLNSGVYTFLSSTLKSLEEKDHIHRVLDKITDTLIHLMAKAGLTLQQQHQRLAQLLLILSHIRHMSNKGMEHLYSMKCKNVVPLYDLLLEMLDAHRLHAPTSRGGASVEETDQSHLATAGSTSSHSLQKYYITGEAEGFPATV
UniProt Q96RI1: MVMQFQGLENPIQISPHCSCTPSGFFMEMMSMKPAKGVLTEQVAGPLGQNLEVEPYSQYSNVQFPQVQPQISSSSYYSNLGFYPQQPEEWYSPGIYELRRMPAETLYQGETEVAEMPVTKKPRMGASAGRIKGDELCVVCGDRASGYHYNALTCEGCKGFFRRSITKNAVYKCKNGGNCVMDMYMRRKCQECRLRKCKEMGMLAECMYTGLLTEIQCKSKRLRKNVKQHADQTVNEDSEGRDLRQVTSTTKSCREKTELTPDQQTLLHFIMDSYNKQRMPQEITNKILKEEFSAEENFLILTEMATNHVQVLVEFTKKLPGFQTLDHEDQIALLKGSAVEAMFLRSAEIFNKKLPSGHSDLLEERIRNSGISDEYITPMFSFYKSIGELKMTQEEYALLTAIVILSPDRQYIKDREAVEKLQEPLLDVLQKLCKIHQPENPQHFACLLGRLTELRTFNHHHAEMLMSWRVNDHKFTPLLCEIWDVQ
UniProt P56817: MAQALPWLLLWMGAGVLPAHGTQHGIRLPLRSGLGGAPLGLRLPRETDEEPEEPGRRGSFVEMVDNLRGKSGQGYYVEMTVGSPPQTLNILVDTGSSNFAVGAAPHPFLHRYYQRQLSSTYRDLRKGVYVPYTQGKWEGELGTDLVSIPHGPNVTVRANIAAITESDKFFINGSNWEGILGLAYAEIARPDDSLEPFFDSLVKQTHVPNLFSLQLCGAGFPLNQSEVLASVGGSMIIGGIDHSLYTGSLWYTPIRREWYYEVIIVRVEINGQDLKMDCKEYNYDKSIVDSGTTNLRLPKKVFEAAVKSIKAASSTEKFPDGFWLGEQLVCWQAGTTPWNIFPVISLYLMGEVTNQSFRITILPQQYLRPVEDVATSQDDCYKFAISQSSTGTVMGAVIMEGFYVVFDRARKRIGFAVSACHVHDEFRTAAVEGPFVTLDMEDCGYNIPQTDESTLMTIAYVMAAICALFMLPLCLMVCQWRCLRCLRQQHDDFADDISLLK
UniProt P25101, whole entry, looked up: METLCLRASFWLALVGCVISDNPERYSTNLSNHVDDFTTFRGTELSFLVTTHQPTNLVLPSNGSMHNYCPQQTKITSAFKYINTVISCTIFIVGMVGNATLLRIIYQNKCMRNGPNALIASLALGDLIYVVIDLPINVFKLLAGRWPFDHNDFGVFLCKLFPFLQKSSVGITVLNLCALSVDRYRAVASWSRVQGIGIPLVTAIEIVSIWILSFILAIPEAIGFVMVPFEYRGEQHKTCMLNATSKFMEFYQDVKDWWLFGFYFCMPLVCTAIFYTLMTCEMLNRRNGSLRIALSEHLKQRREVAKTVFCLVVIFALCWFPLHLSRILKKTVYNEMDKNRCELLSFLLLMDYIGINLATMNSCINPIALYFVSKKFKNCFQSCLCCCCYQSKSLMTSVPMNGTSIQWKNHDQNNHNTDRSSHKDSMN

Assays:
[1] = biological target: Retinoic acid receptor RXR-alpha (Homo sapiens) (UniProt P19793); experiment: TOX21_TR_RXR_BLA_Antagonist_Followup_ratio: Tox21 Thyroid Hormone Receptor beta Retinoid X Receptor alpha (RXRa) Antagonism Beta-lactamase (BLA) Follow-Up Assay, Ratio (AID 2283972)
Method in brief: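 Beta-lactamase reporter readout as cleaved/uncleaved substrate ratio (460:530 nm) after 2 h substrate loading at room temperature. GAL4-RXRa bla HEK293T cells were exposed 16 h at 37C to 11-point compound series; loss of signal scored against DMSO baseline.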

[2] = tested on: Thyroperoxidase (TPO), gene 54314; experiment: CCTE_Simmons_AUR_rTPO: CCTE's Amplex UltraRed Assay for Thyroperoxidase (TPO) Inhibition, Simmons Lab (AID 2283662);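 further: potency for loss of signal meaning inhibition of peroxidase activity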
Method in brief: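 Cell-free peroxidase activity assay using rat thyroid gland microsomes with excess H2O2 (300 uM) and 25 uM Amplex UltraRed. Compounds tested from 5 nM to 87.5 uM; fluorescence measured after 30 min at 37C, analysed relative to DMSO baseline.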

[3] = Tanguay_ZF_120hpf_ActivityScore_legacy: (Legacy) Oregon State University Tanguay Lab 120 Hour Post-fertilization zebrafish Assay Score for Activity (AID 2283742)
Method in brief: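 Dechorionated Tropical 5D embryos, one per well from 6 hpf, statically exposed to 120 hpf at 28 °C in 0.64% DMSO. Mortality and malformations scored binary by brightfield microscopy; activity score combines 18 endpoints, fitted positively versus DMSO.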

[4] = read-out: sulfotransferase (SULT2A), SULT2A1 (gene 6822); experiment: CLD_SULT2A_6hr: CellzDirect (CLD) Gene Expression Assay for sulfotransferase (SULT2A) at 6 hours (AID 2283669);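 further: hits raise transcript level above the DMSO vehicle baseline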
Method in brief: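 Primary human hepatocytes from two donor preparations were dosed daily with chemicals or 0.2% DMSO and harvested at 6 h. Transcript induction read by qNPA chemiluminescence, fitted for gain of signal relative to DMSO; morphology-based cytotoxicity annotated.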

[5] = read-out: xenobiotic metabolism (CYP1A1), CYP1A1 (gene 1543); experiment: CLD_CYP1A1_24hr: CellzDirect (CLD) Gene Expression Assay for xenobiotic metabolism (CYP1A1) at 24 hours (AID 2283673);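 further: CYP1A1 mRNA level by quantitative nuclease protection with chemiluminescence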
Method in brief: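 Primary human hepatocytes dosed daily with fresh solutions in 0.2% DMSO vehicle. mRNA measured at 24 h by quantitative nuclease protection assay with chemiluminescence; gain-of-signal fit versus DMSO, with morphology-based cytotoxicity flags.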

[6] = read-out: ABC Transporter (ABCB11), ABCB11 (gene 8647); experiment: CLD_ABCB11_24hr: CellzDirect (CLD) Gene Expression Assay for ABC Transporter (ABCB11) at 24 hours (AID 2283674; active means hit-call score of the fitted dose curve at least 0.9, where 1 is the maximum; inactive means score below 0.9)
Method in brief: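 Primary human hepatocytes were dosed daily for two days, with 0.2% DMSO vehicle. ABCB11 mRNA induction was measured at 24 hours by quantitative nuclease protection assay with chemiluminescence. Gain of signal was fitted relative to DMSO.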

[7] = read-out: Cytochrome P450 2B6 (Homo sapiens) (UniProt P20813); experiment: CLD_CYP2B6_6hr: CellzDirect (CLD) Gene Expression Assay for xenobiotic metabolism (CYP2B6) at 6 hours (AID 2283677);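 further: actives raise CYP2B6 transcript above DMSO baseline so AC50 marks an inducer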
Method in brief: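 Primary human hepatocytes dosed with chemicals at multiple concentrations, vehicle 0.2% DMSO; CYP2B6 mRNA induction measured 6 h after dosing by quantitative nuclease protection assay with chemiluminescence, gain of signal fitted relative to DMSO.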

[8] = read-out: Cytochrome P450 3A4 (Homo sapiens) (UniProt P08684); experiment: CLD_CYP3A4_6hr: CellzDirect (CLD) Gene Expression Assay for xenobiotic metabolism (CYP3A4) at 6 hours (AID 2283680)
Method in brief: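 Primary human hepatocytes (two donor preparations) dosed; CYP3A4 mRNA harvested at 6 h and quantified by qNPA chemiluminescence. Gain of signal fitted against 0.2% DMSO vehicle; cytotoxicity flagged by phase-contrast morphology.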

[9] = read-out: xenobiotic metabolism (CYP1A2), CYP1A2 (gene 1544); experiment: CLD_CYP1A2_24hr: CellzDirect (CLD) Gene Expression Assay for xenobiotic metabolism (CYP1A2) at 24 hours (AID 2283683)
Method in brief: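 Primary human hepatocytes from two donor preparations dosed daily with multiple concentrations of chemical, 0.2% DMSO vehicle. CYP1A2 mRNA at 24 h quantified by qNPA chemiluminescence; gain of signal analyzed relative to DMSO. Cytotoxicity flagged by phase-contrast morphology.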

[10] = read-out: Cytochrome P450 2B6 (Homo sapiens) (UniProt P20813); experiment: CLD_CYP2B6_24hr: CellzDirect (CLD) Gene Expression Assay for xenobiotic metabolism (CYP2B6) at 24 hours (AID 2283686)
Method in brief: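 Primary human hepatocytes dosed daily for two days with fresh solutions, harvested at 24 hours; mRNA induction quantified by qNPA chemiluminescence, gain of signal vs 0.2% DMSO vehicle. Cytotoxicity annotated from phase-contrast morphology.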

[11] = biological target: human Caspase 8 (CASP8), CASP8 (gene 841) (UniProt Q14790); experiment: NVS_ENZ_hCASP8: NovaScreen (NVS) Enzymatic Assay for human Caspase 8 (CASP8) (AID 2283146)
Method in brief: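 E. coli-expressed enzyme was used in a cell-free fluorogenic substrate assay read 1 h after dosing. Loss of signal was scored relative to DMSO, and the primary screen was run in duplicate at 25 uM.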

[12] = Tanguay_ZF_120hpf_TR_legacy: (Legacy) Oregon State University Tanguay Lab 120 Hour Post-fertilization zebrafish Assay for Touch Response (AID 2283667)
Method in brief: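 Tropical 5D wild-type zebrafish embryos statically exposed to 120 hpf at 28°C, sealed and dark-covered, 0.64% DMSO final; touch response scored as present/absent by brightfield microscopy at 120 hpf. Trimethyltin chloride 5 uM positive control; dead embryos not scored.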

[13] = CCTE_Shafer_MEA_dev_AB: CCTE's Alamar Blue Assay for Cytotoxicity in the Neural Network Formation Assay, Shafer Lab (AID 2284083);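 further: resazurin reduction fluorescence as viability of cultured neurons; twelve days of exposure from plating with re-dosing on DIV 5 and 9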
Method in brief: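 Fluorescent resazurin reduction serves as the viability read-out, with DMSO as negative control and baseline. Cells were primary rat cortical neurons grown on MEA plates and dosed from day 0 to day 12, treatment renewed on DIV 5 and 9.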

[14] = Tanguay_ZF_120hpf_YSE_legacy: (Legacy) Oregon State University Tanguay Lab 120 Hour Post-fertilization zebrafish Assay for Yolk Sac Edema (AID 2283634);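 on AC50: actives raise the incidence of yolk sac edema above the DMSO baseline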
Method in brief: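 Binary brightfield scoring of yolk sac edema at 120 hpf; DMSO baseline, gain-of-signal fitting. Dechorionated 5D larvae, one per well, static exposure 6–120 hpf, 28C, 0.64% DMSO. Dead embryos not scored.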

[15] = biological target: rat Glutamate, NMDA Agonist Site (GluNMDA), Grin1 (gene 24408) (UniProt P35439); experiment: NVS_LGIC_rGluNMDA_Agonist: NovaScreen (NVS) Ligand-Gated Ion Channel Assay for rat Glutamate, NMDA Agonist Site (GluNMDA) (AID 2283327)
Method in brief: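 Rat forebrain membranes, radioligand binding in the agonist-site protocol; 1 h after dosing; filter-based scintillation counting. Single-concentration duplicate screen at 25 uM, then concentration-response up to 50 uM for actives; gain-of-signal vs DMSO.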

[16] = biological target: rat Glutamate Metabotropic Receptor 5 (MGluR5), Grm5 (gene 24418) (UniProt P31424); experiment: NVS_GPCR_rmMGluR5: NovaScreen (NVS) G Protein-Coupled Receptor Assay for rat Glutamate Metabotropic Receptor 5 (MGluR5) (AID 2283307)
Method in brief: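 Rat whole-brain membrane preparation; filter-based radioligand binding read by scintillation counting, 1.5 h after dosing. Single-point screen at 25 uM in duplicate; hits over threshold (e.g. 30% inhibition) retested in concentration-response up to 50 uM; loss of signal vs DMSO.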

[17] = biological target: Estrogen receptor (Homo sapiens) (UniProt P03372); experiment: CCTE_Deisenroth_AIME_384WELL_LUC_Inactive: CCTE's 384-well Estrogen Receptor Transactivation Assay without AIME metabolic competence (ERTA luciferase; metabolism negative), Deisenroth Lab (AID 2284038);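 further: VM7Luc4E2 breast cells given medium preincubated 2 h with S9-free microspheres; hits raise estrogen receptor luciferase signal so potencies reflect agonists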
Method in brief: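 Chemicals (10-point series, 0.002 - 200 uM) were incubated 2 hours with alginate-water microsphere lids lacking S9, then the conditioned medium was transferred to VM7Luc4E2 breast cells for 24 hour. Luciferase induction was read by bioluminescence, fitted upward relative to 17beta-estradiol.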

[18] = biological target: Bile acid receptor (Homo sapiens) (UniProt Q96RI1); experiment: NVS_NR_hFXR_Agonist: NovaScreen (NVS) Nuclear Receptor Binding Assay for human Farnesoid X Receptor Agonism (FXR) (AID 2283347)
Method in brief: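 Cell-free TR-FRET binding assay with extracted human FXR protein, agonist format, read 1 h after dosing. Primary screen at 25 uM single concentration in duplicate, actives retested in concentration series; gain of signal versus DMSO.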

[19] = biological target: human Beta-secretase (BACE), BACE1 (gene 23621) (UniProt P56817); experiment: NVS_ENZ_hBACE: NovaScreen (NVS) Enzymatic Assay for human Beta-secretase (BACE) (AID 2283140);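 further: hits are inhibitors that reduce fluorescent substrate signal versus DMSO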
Method in brief: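 Recombinant BACE1 (SF9 extract) incubated with compound and fluorescent substrate, 1 h. Plates carried positive and DMSO negative controls. Initial single dose 25 uM, duplicate; confirmation by concentration series.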

[20] = biological target: human Endothelin Receptor Type A (ETA), EDNRA (gene 1909) (UniProt P25101); experiment: NVS_GPCR_hETA: NovaScreen (NVS) G Protein-Coupled Receptor Assay for human Endothelin Receptor Type A (ETA) (AID 2283265)
Method in brief: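 Cell-free radioligand displacement using SH-SY5Y-derived protein, 3 h incubation, filter-based scintillation counting. Primary screen in duplicate at 25 uM; actives then run in concentration-response up to 50 uM; loss of binding fitted versus DMSO.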

For `c1cc(N(CC2CO2)CC2CO2)ccc1OCC1CO1` (stereo not given), the AC50 [1] was inconclusive: 22.6 µM.
In the case of `CC(Cc1ccc(O)c(O)c1)C(C)Cc1ccc(O)c(O)c1` (stereo not given), the AC50 [2] is reported as active: 0.55 µM.
For `CCCCCOC(C)=O`, the outcome [3] was “inactive”.
In the case of `CCC(O)=C1C(=O)CC(C(=O)O)CC1=O` (stereo not given), the AC50 [4] is reported as inconclusive: 20 µM, the AC50 [5] is reported as inconclusive: 0.013 µM and the outcome [6] is reported as “inactive”. The AC50 [7] was inconclusive: 20 µM, the AC50 [8] was inconclusive: 1.89 µM and the AC50 [9] was inconclusive: 0.0401 µM. The AC50 [10] was inconclusive: 20 µM.
With `COc1cc2c(c(OC)c1OC)-c1ccc(OC)c(=O)cc1[C@@H](NC(C)=O)CC2` the outcome [11] was “inactive”, the AC50 [12] was active: 13.3 µM and the AC50 [13] was active: 0.0232 µM.
In the case of `COC(=O)CCCCC(=O)OC`, the AC50 [14] is reported as inconclusive: 5.59 µM.
With `NCCO` the AC50 [15] was inconclusive: 6.09 µM.
In the case of `CN1C(=O)N(c2ccccc2Br)Cc2cnc(Nc3ccc4c(c3)OCC(CO)O4)nc21` (stereo not given), the AC50 [16] is reported as inconclusive: 25 µM and the AC50 [12] is reported as inconclusive: 31.5 µM.
For `CCCCCCCCCC[N+](C)(CCCCCCCCCC)CCC[Si](OC)(OC)OC`, the AC50 [17] was inconclusive: 134 µM.
With `COC(=O)c1cccc(C)c1S(=O)(=O)NC(=O)Nc1nc(OCC(F)(F)F)nc(N(C)C)n1` the outcome [11] was “inactive” and the AC50 [18] was inconclusive: 25 µM.
In the case of `CCCCCCCC=O`, the AC50 [15] is reported as inconclusive: 25 µM and the outcome [14] is reported as “inactive”.
For `O=C1OC2(c3ccc(O)cc3Oc3cc(O)ccc32)c2ccccc21`, the AC50 [19] was active: 7.41 µM, the AC50 [18] was inconclusive: 13.2 µM and the outcome [17] was “inactive”.
For `CC[C@H](C)C(=O)O[C@H]1C[C@H](O)C=C2C=C[C@H](C)[C@H](CC[C@@H](O)C[C@@H](O)CC(=O)O)[C@H]21`, the AC50 [20] was inconclusive: 25 µM, the outcome [20] was “inactive” and the outcome [16] was “inactive”.
With `O=S1(=O)CC=CC1` the AC50 [19] was inconclusive: 27.6 µM.
For `OCCC(F)(F)C(F)(F)C(F)(F)C(F)(F)F`, the AC50 [13] was inconclusive: 15 µM.
